Measurements reported in PubChem BioAssay AID504784 (Drosophila RNAi Screening Center, 2011).

Aim: 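Fly genes whose silencing alters how much lipid cells keep in droplets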 (primary screen)
Cells: Drosophila Kc167 embryonic cells
Knock-down reagent: long dsRNA against Drosophila genes, about 250 ng dsRNA per well
Timing: 4 days
Challenge: cells fed 400 µM oleic acid bound to BSA
Detection: 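Microscope images give a droplet-to-nucleus area ratio, taken as log and converted to a screen-wide B-score; higher values mean greater lipid storage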
Scale: droplet/nuclear area B-score: higher = more stored lipid (overstorage)
The screen tested about 17,000 reagents; this is an unselected part of those with a known target gene and a result. 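Each column is one replicate's B-score; the combined score over replicates was not deposited, so single values may mislead.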 Reagents against one gene are numbered here. A plus sign joins genes that one reagent is predicted to hit. Not all columns of the deposit are shown.

gene knocked down | reagent no. | droplet/nuclear area B-score, replicate 1 | droplet/nuclear area B-score, replicate 2
Paris | 1 | 0.616 | -0.0442
esg | 1 | 0.905 | -1.59
CG1998 | 1 | -0.24 | 1.54
Trs33 | 1 | -0.0302 | -2.09
levy | 1 | 2.97 | 0.551
Or45b | 1 | 1.06 | -0.701
RpS28a | 1 | 0.81 | -0.0273
salt | 1 | -0.196 | 0.658
CG34353 | 1 | -0.398 | -2.82
CG34353 | 2 | 1.31 | 0.606
CG34353 | 3 | 0.453 | 0.566
CG34353 | 4 | -0.0247 | 0.292
CG34353 | 5 | 0.474 | 0.068
Obp19d | 1 | 3.29 | 2
unk | 1 | -1.49 | -0.142
CG8202 | 1 | -0.862 | 0.285
Elp3 | 1 | -0.257 | -0.607
CG30389 | 1 | -2.63 | -1.4
CG30389 | 2 | 2.05 | -0.438
Atg10 + CG12822 | 1 | 0.489 | 1.44
mahe | 1 | 0.427 | -0.862
Gle1 | 1 | 2.13 | 1.43
CG2964 | 1 | -0.0443 | 1.53
Rab7 | 1 | 1.51 | -0.743
CG13204 | 1 | -1.06 | -0.67
CG13066 | 1 | -0.332 | -0.599
CG13315 | 1 | -0.519 | 0.0468
CG31715 | 1 | 1.01 | -1.17
CG4839 | 1 | -0.369 | 0.0652
CG4839 | 2 | 0.678 | 0.733
Caf1-55 | 1 | 0.012 | -0.126
CG10730 | 1 | 0.437 | 1.66
Ktch | 1 | 1.12 | -1.44
Tango1 | 1 | 4.94 | 3.57
CG32407 | 1 | 0.644 | -0.0927
CR33283 | 1 | 0.578 | 0.551
CG8500 | 1 | 1.04 | 3.03
CG11035 | 1 | -2.95 | 3.98
Cpr78Cc | 1 | 1.31 | 0.00137
CG1503 | 1 | -0.243 | 0.0534
Erasp | 1 | 1.12 | -1.31
l(2)k09913 | 1 | 0.503 | 0.264
CG15120 | 1 | -1.97 | 3.38
CG17996 + Tsen2 | 1 | 0.281 | -0.00049
CG11584 | 1 | -0.112 | 0.561
Vps13D | 1 | 1.36 | 1.39
Vps13D | 2 | -0.128 | 1.94
CG7565 | 1 | 1.13 | -0.377
CG2617 | 1 | 1.58 | 0.47
Faa | 1 | -1.22 | -0.842
CG12010 | 1 | -0.3 | -0.179
CG13685 | 1 | 0.637 | -0.577
thoc5 | 1 | 0.0186 | -1.04
Atg10 | 1 | 0.426 | 0.684
CG9503 | 1 | -0.271 | 0.959
CG9503 | 2 | -0.137 | 0.399
cpb | 1 | -0.0972 | 1.39
Claspin | 1 | -0.425 | -1.22
Takl2 | 1 | -1.94 | 0.371
CG30082 | 1 | 0.291 | 1.08
CG1275 | 1 | 0.339 | -1.66
ed | 1 | -3 | -1.83
ed | 2 | 0.0145 | -0.742
ed | 3 | -0.429 | -2.41
ed | 4 | 2.47 | -0.482
Ostgamma | 1 | -0.454 | -0.0851
Fer1 | 1 | 1.27 | 0.522
Fer1 | 2 | -0.832 | 0.417
CG6497 | 1 | -1.46 | -0.893
CG6497 | 2 | 1.51 | -1.62
CG18635 | 1 | 0.97 | 0.453
dpr18 | 1 | -0.0655 | -0.05
alphaSnap | 1 | 5.24 | 2.13
CG6805 | 1 | 0.0776 | -0.444
ymp | 1 | -0.186 | -0.176
ymp | 2 | 0.116 | 0.309
CG15345 (retired record) | 1 | -0.463 | 0.331
CG15345 (retired record) | 2 | 0.135 | -0.00256
CG12942 | 1 | 1.36 | 1.43
Agps | 1 | 1.77 | 0.0298
peg | 1 | 0.516 | 0.0131
Gld2 | 1 | 2.23 | -1.14
Gld2 | 2 | -1.29 | 0.775

Sorted by “droplet/nuclear area B-score, replicate 2” (high to low): 12 of the entries above
gene knocked down | reagent no. | droplet/nuclear area B-score, replicate 1 | droplet/nuclear area B-score, replicate 2
Vps13D | 2 | -0.128 | 1.94
Vps13D | 1 | 1.36 | 1.39
cpb | 1 | -0.0972 | 1.39
CG9503 | 1 | -0.271 | 0.959
Atg10 | 1 | 0.426 | 0.684
CG2617 | 1 | 1.58 | 0.47
CG9503 | 2 | -0.137 | 0.399
CG12010 | 1 | -0.3 | -0.179
CG7565 | 1 | 1.13 | -0.377
CG13685 | 1 | 0.637 | -0.577
Faa | 1 | -1.22 | -0.842
thoc5 | 1 | 0.0186 | -1.04
